Measurements taken from the supplement of paper PMC4962491.
± gives the standard deviation of the averaged measurements. This is a selection; strong and weak results do not stand in their true shares. Single values are uncertain here, since repeats match poorly.

Tested on: FaDu
Test: mitochondrial oxygen consumption rate normalised to cell number, Z score over the library; higher = higher oxygen consumption (negative = OCR reduction)
Conditions: treatment time 24 h, assay medium: 5 mM galactose, 5 mM pyruvate, 4 mM glutamine
Procedure: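 Primary screen: FaDu cells were incubated 24 h with Pharmakon 1600 / TDI oncology set compounds at 2 or 10 uM. Mitochondrial-specific OCR (basal minus 2 uM antimycin A) was measured on a Seahorse XF96 in assay medium with 5 mM galactose, 5 mM pyruvate and 4 mM glutamine, then corrected for Hoechst cell number and expressed as a Z score […]. Compounds that cut cell number by >66% were excluded. Two repeats.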

SMILES	mitochondrial oxygen consumption rate normalised (2 µM)	mitochondrial oxygen consumption rate normalised (10 µM)
CN1[C@@H]2CC[C@H]1C[C@@H](OC(=O)C(CO)c1ccccc1)C2 (stereo partly specified)	0.647 ± 1.5	–
C[C@]12CCC(=O)C(O)=C1CC[C@@H]1[C@@H]2CC[C@]2(C)C(=O)CC[C@@H]12	0.625 ± 1.1	–
CNC(C)(C)Cc1ccccc1	1.04 ± 0.16	–
CCOP(=S)(OCC)Oc1cc(C)nc(C(C)C)n1	0.915 ± 1.4	–
COc1ccc(C(CN(C)C)C2(O)CCCCC2)cc1 (stereo unspecified)	1.39 ± 1.4	–
CNC(=O)Oc1ccc2c(c1)[C@]1(C)CCN(C)[C@@H]1N2C	0.676 ± 0.67	–
CN(C)C(=O)Oc1cccc([N+](C)(C)C)c1	-0.249 ± 0.36	–
CN1[C@H]2C[C@H](OC(=O)[C@H](CO)c3ccccc3)C[C@@H]1[C@@H](O)C2	0.172 ± 0.24	–
CN1CCc2cc3c(cc2C1O)OCO3 (stereo unspecified)	-0.398 ± 0.51	–
O=c1[nH]c2ccccc2n1C1CCN(CCCC(c2ccc(F)cc2)c2ccc(F)cc2)CC1	-0.716 ± 0.13	-2.35 ± 0.37
CC(=O)[O][Hg][c]1ccccc1	0.464 ± 0.097	–
CC(=O)Nc1cc([As](=O)(O)O)ccc1O	-0.678 ± 0.61	–
C#CCN(C)[C@H](C)Cc1ccccc1	0.845 ± 1	–
CN(C)C(=O)Oc1ccc[n+](C)c1	-0.929 ± 0.24	–
NCCCNCCSP(=O)(O)O [Amifostine]	0.667 ± 0.72	–
NCCCNCCSP(=O)(O)O	0.21 ± 0.095	–
Nc1ccc([As](=O)(O)O)cc1	0.332 ± 0.24	0.928 ± 0.83
COP(=S)(OC)Oc1cc(Cl)c(Cl)cc1Cl	0.0038 ± 0.18	–
CCCCCCCCC(=O)NCc1ccc(O)c(OC)c1	0.428 ± 1.4	–

Part of the list above, reformatted.
SMILES | mitochondrial oxygen consumption rate normalised (2 µM) | mitochondrial oxygen consumption rate normalised (10 µM)
CN1CCc2cc3c(cc2C1O)OCO3 (stereo unspecified) | -0.398 ± 0.51 | –
O=c1[nH]c2ccccc2n1C1CCN(CCCC(c2ccc(F)cc2)c2ccc(F)cc2)CC1 | -0.716 ± 0.13 | -2.35 ± 0.37
CC(=O)[O][Hg][c]1ccccc1 | 0.464 ± 0.097 | –
CC(=O)Nc1cc([As](=O)(O)O)ccc1O | -0.678 ± 0.61 | –
